These are yes or no findings as the source states them, for the method shown. Binding seen in cells or lysates may run through a third protein. Some binding calls cover weakened binding; strength is not graded here.
B1: Miz-1 (protein, UniProt Q13105 1-803)
chain: MDFPQHSQHVLEQLNQQRQLGLLCDCTFVVDGVHFKAHKAVLAACSEYFKMLFVDQKDVVHLDISNAAGLGQVLEFMYTAKLSLSPENVDDVLAVATFLQMQDIITACHALKSLAEPATSPGGNAEALATEGGDKRAKEEKVATSTLSRLEQAGRSTPIGPSRDLKEERGGQAQSAASGAEQTEKADAPREPPPVELKPDPTSGMAAAEAEAALSESSEQEMEVEPARKGEEEQKEQEEQEEEGAGPAEVKEEGSQLENGEAPEENENEESAGTDSGQELGSEARGLRSGTYGDRTESKAYGSVIHKCEDCGKEFTHTGNFKRHIRIHTGEKPFSCRECSKAFSDPAACKAHEKTHSPLKPYGCEECGKSYRLISLLNLHKKRHSGEARYRCEDCGKLFTTSGNLKRHQLVHSGEKPYQCDYCGRSFSDPTSKMRHLETHDTDKEHKCPHCDKKFNQVGNLKAHLKIHIADGPLKCRECGKQFTTSGNLKRHLRIHSGEKPYVCIHCQRQFADPGALQRHVRIHTGEKPCQCVMCGKAFTQASSLIAHVRQHTGEKPYVCERCGKRFVQSSQLANHIRHHDNIRPHKCSVCSKAFVNVGDLSKHIIIHTGEKPYLCDKCGRGFNRVDNLRSHVKTVHQGKAGIKILEPEEGSEVSVVTVDDMVTLATEALAATAVTQLTVVPVGAAVTADETEVLKAEISKAVKQVQEEDPNTHILYACDSCGDKFLDANSLAQHVRIHTAQALVMFQTDADFYQQYGPGGTWPAGQVLQAGELVFRPRDGAEGQPALAETSPTAPECPPPAE
B2: TRIM28, Q13263 1-835 (protein)
chain: MAASAAAASAAAASAASGSPGPGEGSAGGEKRSTAPSAAASASASAAASSPAGGGAEALELLEHCGVCRERLRPEREPRLLPCLHSACSACLGPAAPAAANSSGDGGAAGDGTVVDCPVCKQQCFSKDIVENYFMRDSGSKAATDAQDANQCCTSCEDNAPATSYCVECSEPLCETCVEAHQRVKYTKDHTVRSTGPAKSRDGERTVYCNVHKHEPLVLFCESCDTLTCRDCQLNAHKDHQYQFLEDAVRNQRKLLASLVKRLGDKHATLQKSTKEVRSSIRQVSDVQKRVQVDVKMAILQIMKELNKRGRVLVNDAQKVTEGQQERLERQHWTMTKIQKHQEHILRFASWALESDNNTALLLSKKLIYFQLHRALKMIVDPVEPHGEMKFQWDLNAWTKSAEAFGKIVAERPGTNSTGPAPMAPPRAPGPLSKQGSGSSQPMEVQEGYGFGSGDDPYSSAEPHVSGVKRSRSGEGEVSGLMRKVPRVSLERLDLDLTADSQPPVFKVFPGSTTEDYNLIVIERGAAAAATGQPGTAPAGTPGAPPLAGMAIVKEEETEAAIGAPPTATEGPETKPVLMALAEGPGAEGPRLASPSGSTSSGLEVVAPEGTSAPGGGPGTLDDSATICRVCQKPGDLVMCNQCEFCFHLDCHLPALQDVPGEEWSCSLCHVLPDLKEEDGSLSLDGADSTGVVAKLSPANQRKCERVLLALFCHEPCRPLHQLATDSTFSLDQPGGTLDLTLIRARLQEKLSPPYSSPQEFAQDVGRMFKQFNKLTEDKADVQSIIGLQRFFETRMNEAFGDTKFSAVLVEPPPMSLPGAGLSSQELSGGPGDGP

The chains behind the UniProt entries cited, without tags or fusion partners.
UniProt P01106: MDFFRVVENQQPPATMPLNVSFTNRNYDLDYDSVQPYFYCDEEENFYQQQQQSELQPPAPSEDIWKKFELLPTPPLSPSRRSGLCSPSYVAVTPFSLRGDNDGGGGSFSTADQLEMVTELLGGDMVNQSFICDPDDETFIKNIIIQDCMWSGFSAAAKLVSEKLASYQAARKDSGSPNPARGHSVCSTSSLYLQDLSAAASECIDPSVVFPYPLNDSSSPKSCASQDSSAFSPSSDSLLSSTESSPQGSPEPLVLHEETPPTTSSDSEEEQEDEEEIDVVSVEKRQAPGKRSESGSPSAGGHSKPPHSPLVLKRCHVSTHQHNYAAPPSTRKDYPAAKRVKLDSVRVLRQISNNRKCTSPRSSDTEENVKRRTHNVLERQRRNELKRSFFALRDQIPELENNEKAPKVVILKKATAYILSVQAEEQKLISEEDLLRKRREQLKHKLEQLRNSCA

How the values were obtained:
[1] = biological target: c-Myc (human (endogenous in H9 ES cells)) (UniProt P01106); experiment: co-IP; whole-cell lysate of H9 human ES cells (50 mM Hepes pH 7.9, 1 mM MgCl2, 20 mM NaCl, 10 mM EDTA, 10% glycerol, 0.2% NP-40); immunoprecipitation with anti-c-Myc antibody overnight, protein-G-sepharose; Western blot; endogenous proteins
[2] = biological target: c-Myc (human (endogenous in H9 ES cells)), P01106; experiment: as above; conditions: remark: other sources report otherwise

Binder	binding [1]	binding [2]
B1	binds	–
B2	–	no binding

Reference: publication PMC3226433
